In patent publication US20130236964A1, “METHODS, NUCLEIC ACID CONSTRUCTS AND CELLS FOR TREATING NEURODEGENERATIVE DISORDERS” (RAMOT AT TEL-AVIV UNIVERSITY LTD., priority 2002, published 2013):
At least one structure is not confirmed: it was looked up by name or label, or the drawing left a doubt.

Tests used:
mBMSc = experiment: Differentiation of mouse BMSc into oligodendrocyte precursors (morphology, survival, A2B5 immunoassay); type: cell-based; details: inducing substance alone, 24 hr incubation
Procedure: Mice B5/EGFP (male) were sacrificed by cervical dislocation and were prepared with 70% alcohol solution. […] The cell pellet was resuspended in 1 ml growth medium and diluted to 10 ml. The cells were plated in polystyrene plastic tissue cultures 75 cm^2 flask (Corning Incorporated, Corning, N.Y.) in the “proliferation medium” (see Example 1 hereinabove) for one week. The cells were then transferred to polylysin-coated slide-chambers (3200 cells/well), supplemented “proliferation medium” and incubated for 24 hours at 37° C. The growth medium was then replaced with “oligodendrocytes differentiation media” composed of DMEM supplemented with 2 mM glutamine, SPN, one or more of the following substances: bFGF (10 ng/ml), EGF (10-20 ng/ml), Interlukin-1b (20-40 ng/ml), dbcAMP (1-2 mM), retinoic acid (0.5 or 1 μM), neurotrophin-3 (50 or 100 ng/ml), human platelet derived growth factor (PDGF-AA; 5-20 ng/ml), N2 supplement, triiodothyronien (T3; 40 ng/ml) and ciliary neurotrophic factor (20 ng/ml; CNTF).
The cultures were incubated at 37° C. for 1, 2 or 6 days (replacing growth media with fresh media every two days) then fixed in 4% PFA. […] The incidence of cells stained positive for A2B5 (an early marker of oligodendrocyte progenitors) was determined by using a fluorescent microscope equipped with Image ProPlus cell-counting program (Cybernetics).

Human BMSCs = experiment: Fatty acid composition of BMSC after fatty acid supplementation of media (lipid extraction, gas chromatography); type: cell-based
Procedure: DHA and AA were diluted in DMEM with 1% horse serum. α-tocopherol was dissolved in ethanol (absolute) before supplementation. FA and α-tocopherol were stored at 4° C. in darkness to prevent their oxidation. Following forty-eight hours, the “additional differentiation medium” was changed to “differentiation medium”, containing DMEM supplemented with SPN, 2 mM L-glutamine, 200 μM butylated hydroxyanisole (BHA), 1 mM dibutyryl cyclic AMP (dbcAMP), 0.5 mM isobutylmethylxanthine (IBMX), 1 μM retinoic acid (RA) and N2 supplement with increasing amounts of DHA (Sigma) and AA (Sigma) (0, 30, 40, 50 and 60 μM). α-tocopherol was added at a concentration of 40 μM to all samples.
Following removal of medium from the culture dish, adherent cells were washed twice with cold PBS and dried by gentle aspiration with a Pasteur pipette. To each culture dish, 3 ml of a hexane:isopropanol (3:2 vol:vol) (HIP) solvent mixture containing 5 mg/dl butylated hydroxytoluene (BHT) was added. The dishes were gently shaken at room temperature for 10 minutes and the supernates were transferred to methylation tubes. The procedure was repeated with 1.5 ml HIP and the lipid extracts were added to the same tubes. For quantitative experiments which included simultaneous protein determination, lipid extraction was performed with HIP which contained a known amount of heneicosanoic acid (21:0) so as to obtain an internal standard. In addition, for these experiments, known volumes of concentrated cell suspensions were directly extracted with HIP and the protein content was determined from an equal volume of cell concentrates.
The lipid extracts were evaporated to dryness under a stream of nitrogen. […] The tubes were capped under N2, vortexed and heated at 100° C. for 1 hour. The resulting fatty acid methyl esters (FAME) were extracted into hexane, after acidification of the mixture with 3 drops of 3N HCl, and kept under N2 at −20° C. until analysis.
Injection was performed with a split/splitless injector kept at 220° C. at a split ratio of 1:30. Detector temperature was 250° C. […]

Row | Structure (SMILES) | neuronal cell morphology (mBMSc) | cellular PUFA composition (Human BMSCs; DHA 30 μM in additional differentiation medium) | cellular DHA content (% weight) versus DHA concentration (Human BMSCs; increasing DHA concentration) | cellular AA concentration versus DHA concentration (Human BMSCs; increasing DHA concentrations)
1 | CC1=C(/C=C/C(C)=C/C=C/C(C)=C/C(=O)O)C(C)(C)CCC1 [retinoic acid] | Neuronal cell morphology was observed |  |  | 
2 | CC/C=C\C/C=C\C/C=C\C/C=C\C/C=C\C/C=C\CCC(=O)O [DHA, docosahexaenoic acid] |  | cellular PUFA composition approaching that of normal neural tissue | increased continuously with increasing DHA concentration | decreased with increasing DHA concentrations
